According to patent US20160264960A1:
Results are given in words; binding and its absence hold for the method and conditions named. Some entries that bind do so weakly or less than the wild type.

Chains of the proteins cited; added tags and fusions are not shown. Lines headed by an entry give the natural chain unless they say otherwise; changes in a name come on top.
UniProt P08887: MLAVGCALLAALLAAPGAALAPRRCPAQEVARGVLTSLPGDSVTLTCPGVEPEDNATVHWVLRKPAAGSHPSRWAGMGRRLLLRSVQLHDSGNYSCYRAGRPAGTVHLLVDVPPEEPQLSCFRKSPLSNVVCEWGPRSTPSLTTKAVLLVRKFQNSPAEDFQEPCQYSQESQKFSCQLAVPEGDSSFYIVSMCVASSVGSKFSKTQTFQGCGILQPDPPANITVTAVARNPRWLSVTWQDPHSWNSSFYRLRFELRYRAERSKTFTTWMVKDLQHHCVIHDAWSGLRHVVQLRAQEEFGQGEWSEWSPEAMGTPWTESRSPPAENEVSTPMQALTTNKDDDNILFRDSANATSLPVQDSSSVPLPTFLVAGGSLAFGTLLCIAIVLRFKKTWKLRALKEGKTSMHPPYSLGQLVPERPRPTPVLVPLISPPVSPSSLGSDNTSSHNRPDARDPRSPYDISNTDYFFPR

Assays:
mouse IgA (mouse) [1] = target: T1, mouse IgA (mouse) (UniProt P01878); experiment: phage ELISA of the Fab-displaying clones of Example 3 (PF1 L chain)
T1 sequence (looked up): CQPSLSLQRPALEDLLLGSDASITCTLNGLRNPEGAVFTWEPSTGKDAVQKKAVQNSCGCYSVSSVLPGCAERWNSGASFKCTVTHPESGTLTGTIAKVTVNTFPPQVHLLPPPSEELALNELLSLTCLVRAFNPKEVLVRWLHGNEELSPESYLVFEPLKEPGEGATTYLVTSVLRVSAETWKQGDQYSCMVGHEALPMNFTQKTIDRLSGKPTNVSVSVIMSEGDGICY

mouse IgA (mouse) [2] = target: T1, mouse IgA (mouse); experiment: BLI, Octet RED384; antibody on Protein G biosensor, antigen in solution
mouse IgA (mouse) [3] = target: T1, mouse IgA (mouse); experiment: biolayer interferometry (Octet RED384), antibody on Protein G biosensor, mouse IgA in solution, 120 s association and 120 s dissociation [a]
[4] = target: soluble human IL-6R (human) (UniProt P08887); experiment: phage ELISA of the Fab-displaying clones of Example 3 (PF1 L chain)
[5] = target: soluble human IL-6R (human) (UniProt P08887); experiment: BLI, Octet RED384; antibody on Protein G biosensor, antigen in solution
[6] = target: soluble human IL-6R (human) (UniProt P08887); experiment: biolayer interferometry (Octet RED384), antibody on Protein G biosensor, soluble human IL-6R in solution, 120 s association and 120 s dissociation [d]

Measured: binding

B1: mIANH-2_27 (antibody, human IgG1, kappa, V domains shown)
VH: EVQLVQSGAEVKKPGASVKVSCKASGYTFTGYYIHWVRQAPGQGLEWMGRINPNSGGTNYAQKFQGRVTMTRDTSISTAYMQLSRLRSDDTAVYYCARDNSGWGGFDAFDIWGQGTMVTVSS
VL: DIQMTQSPSSLSASVGDSVTITCQASQDISSYLNWYQQKPGKAPELLIYYGSELHSGVPSRFSGSGSGTDFTFTISSLEAEDAATYYCGQGNRLPYTFGQGTKVEIER
binds: mouse IgA (mouse) [1] | mouse IgA (mouse) [2] | mouse IgA (mouse) [3]

B2: 6RNH-2_42 (antibody, human IgG1, kappa, V domains shown)
VH: QVQLQESGPGLVKPSETLSLTCAVSGYSISDDHAWSWVRQPPGEGLEWIGYISYSGITNYNPSLKGRVTISRDTSKNQFSLKLSSVTAADTAAYYCARVLARITAMDYWGEGTLVTVSS
VL: DIQMTQSPSSLSASVGDSVTITCQASQDISSYLNWYQQKPGKAPELLIYYGSELHSGVPSRFSGSGSGTDFTFTISSLEAEDAATYYCGQGNRLPYTFGQGTKVEIER
binds: [4] | [5] | [6]
